Laboratory results from US9909086B2, “Green glycine betaine derivative compounds and compositions containing same” (priority 2012, dated 2018).
At least one compound was matched to its structure with a doubt left.

Assay: Critical Micelle Concentration (CMC)
Assay type: physicochemical
Details: T = 24° C.; pure

SMILES | CMC
CCCCCCCCCCCCCCNC(=O)C[N+](C)(C)C.CS(=O)(=O)[O-] [GB Myristic amide, Betainyl amino tetradecane methane sulfonate] | 1.02 10^−3 mol/l
CCCCCCCCCCCCCCCCNC(=O)C[N+](C)(C)C.CS(=O)(=O)[O-] [GB Palmitic amide, Betainyl amino hexadecane methane sulfonate] | 3.39 10^−4 mol/l
CCCCCCCC/C=C\CCCCCCCCNC(=O)C[N+](C)(C)C.CS(=O)(=O)[O-] [GB Oleic amide, (Z)-betainyl amino octadec-9-ene methane sulfonate] | 1.02 10^−4 mol/l
CCCCCCCCCCCCCCCCCCNC(=O)C[N+](C)(C)C.CS(=O)(=O)[O-] [GB Stearic amide, Betainyl amino octadecane methane sulfonate] | 2.4 10^−4 mol/l
